Experimental findings from paper PMC10003616 are described below.

The target of this experiment is TaVAMP723-3B (Triticum aestivum (wheat)). Nature of the experiment: two-hybrid; MatchMaker Y2H system (Clontech); BD fusions in pGBKT7, AD fusions in pGADT7; both orientations; ten-fold serial dilutions spotted on SD/-Leu-Trp and SD/-Leu-Trp-Ade-His, 30 °C, 4 days.

Results are given in words; binding and its absence hold for the method and conditions named. A result given as binding can be weak or reduced; the word gives no strength.

Consider TaSYP137-5B (from UniProt A0A3B6LHZ2), for which the binding entry is “binds”.
